# Assay results from the supplement of paper PMC8728848.
# This is one part of the list.
# Experiments:
# Experiment in all cases: glycan array binding signal (z-score within array); higher = stronger binding
# Conditions in all cases: glycan notation: IUPAC condensed, linker removed
# [1] = molecular target: Fuc(a1-3)[Gal3S(b1-4)]GlcNAc
# How it was run: (§1)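 Glycan array data came from 3228 arrays in the Consortium for Functional Glycomics database, and only arrays with an available protein sequence were kept. Glycan names were put into IUPAC-condensed notation, and columns mapping to the same glycan were averaged. The binding signal is a within-array Z-score, averaged across arrays of one protein sequence run at different concentrations or buffers and across linkers. A negative Z-score can be read as non-binding.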
# [2] = molecular target: Fuc(a1-3)[Gal3S(b1-4)]GlcNAc6S
# How it was run: as §1
# [3] = molecular target: Fuc(a1-3)[GalNAc(b1-4)]GlcNAc
# How it was run: as §1
# Fuc(a1-4)GlcNAc = molecular target: Fuc(a1-4)GlcNAc
# How it was run: as §1
# Fuc(b1-3)GlcNAc = molecular target: Fuc(b1-3)GlcNAc
# How it was run: as §1
# Gal(a1-2)Gal = molecular target: Gal(a1-2)Gal
# How it was run: as §1
# Gal(a1-3)Gal = molecular target: Gal(a1-3)Gal
# How it was run: as §1
# Gal(a1-3)Gal(b1-3)GlcNAc = molecular target: Gal(a1-3)Gal(b1-3)GlcNAc
# How it was run: as §1
# [4] = molecular target: Gal(a1-3)Gal(b1-3)GlcNAc(b1-2)Man(a1-3)[Gal(a1-3)Gal(b1-3)GlcNAc(b1-2)Man(a1-6)]Man(b1-4)GlcNAc(b1-4)GlcNAc
# How it was run: as §1
# [5] = molecular target: Gal(a1-3)Gal(b1-3)[Fuc(a1-4)]GlcNAc(b1-2)Man(a1-3)[Gal(a1-3)Gal(b1-3)[Fuc(a1-4)]GlcNAc(b1-2)Man(a1-6)]Man(b1-4)GlcNAc(b1-4)GlcNAc
# How it was run: as §1
# Gal(a1-3)Gal(b1-4)Glc = molecular target: Gal(a1-3)Gal(b1-4)Glc
# How it was run: as §1
# Gal(a1-3)Gal(b1-4)GlcNAc = molecular target: Gal(a1-3)Gal(b1-4)GlcNAc
# How it was run: as §1
# [6] = molecular target: Gal(a1-3)Gal(b1-4)GlcNAc(b1-3)GalNAc
# How it was run: as §1
# [7] = molecular target: Gal(a1-3)Gal(b1-4)[Fuc(a1-3)]GlcNAc
# How it was run: as §1
# [8] = molecular target: Gal(a1-3)Gal(b1-4)[Fuc(a1-3)]GlcNAc(b1-2)Man(a1-3)[Gal(a1-3)Gal(b1-4)[Fuc(a1-3)]GlcNAc(b1-2)Man(a1-6)]Man(b1-4)GlcNAc(b1-4)GlcNAc
# How it was run: as §1
# Gal(a1-3)GalNAc = molecular target: Gal(a1-3)GalNAc
# How it was run: as §1
# [9] = molecular target: Gal(a1-3)[Gal(a1-4)]Gal(b1-4)GlcNAc
# How it was run: as §1
# [10] = molecular target: Gal(a1-4)Gal(b1-3)GlcNAc(b1-2)Man(a1-3)[Gal(a1-4)Gal(b1-3)GlcNAc(b1-2)Man(a1-6)]Man(b1-4)GlcNAc(b1-4)GlcNAc
# How it was run: as §1
# Gal(a1-4)Gal(b1-4)Glc = molecular target: Gal(a1-4)Gal(b1-4)Glc
# How it was run: as §1
# Gal(a1-4)Gal(b1-4)GlcNAc = molecular target: Gal(a1-4)Gal(b1-4)GlcNAc
# How it was run: as §1
# [11] = molecular target: Gal(a1-4)Gal(b1-4)GlcNAc(b1-2)Man(a1-3)[Gal(a1-4)Gal(b1-4)GlcNAc(b1-2)Man(a1-6)]Man(b1-4)GlcNAc(b1-4)GlcNAc
# How it was run: as §1
# [12] = molecular target: Gal(a1-4)Gal(b1-4)GlcNAc(b1-3)Gal(b1-4)Glc
# How it was run: as §1
# Gal(a1-4)GlcNAc = molecular target: Gal(a1-4)GlcNAc
# How it was run: as §1
# Gal(a1-6)Glc = molecular target: Gal(a1-6)Glc
# How it was run: as §1
# Gal(b1-2)Gal = molecular target: Gal(b1-2)Gal
# How it was run: as §1
# Gal(b1-3)Gal = molecular target: Gal(b1-3)Gal
# How it was run: as §1
# Gal(b1-3)Gal(b1-4)GlcNAc = molecular target: Gal(b1-3)Gal(b1-4)GlcNAc
# How it was run: as §1
# [13] = molecular target: Gal(b1-3)Gal(b1-4)GlcNAc(b1-2)Man(a1-3)[Gal(b1-3)Gal(b1-4)GlcNAc(b1-2)Man(a1-6)]Man(b1-4)GlcNAc(b1-4)GlcNAc
# How it was run: as §1
# Gal(b1-3)GalNAc = molecular target: Gal(b1-3)GalNAc
# How it was run: as §1
# [14] = molecular target: Gal(b1-3)GalNAc(a1-3)[Fuc(a1-2)]Gal(b1-4)Glc
# How it was run: as §1
# [15] = molecular target: Gal(b1-3)GalNAc(a1-3)[Fuc(a1-2)]Gal(b1-4)GlcNAc
# How it was run: as §1
# [16] = molecular target: Gal(b1-3)GalNAc(b1-3)Gal(a1-4)Gal(b1-4)Glc
# How it was run: as §1
# [17] = molecular target: Gal(b1-3)GalNAc(b1-4)Gal(b1-4)Glc
# How it was run: as §1
# [18] = molecular target: Gal(b1-3)GalNAc(b1-4)[Neu5Ac(a2-3)]Gal(b1-4)Glc
# How it was run: as §1
# Gal(b1-3)GlcNAc = molecular target: Gal(b1-3)GlcNAc
# How it was run: as §1
# [19] = molecular target: Gal(b1-3)GlcNAc(a1-6)Gal(b1-4)GlcNAc
# How it was run: as §1
# [20] = molecular target: Gal(b1-3)GlcNAc(b1-2)Man(a1-3)[Gal(b1-3)GlcNAc(b1-2)Man(a1-6)]Man(b1-4)GlcNAc(b1-4)GlcNAc
# How it was run: as §1
# [21] = molecular target: Gal(b1-3)GlcNAc(b1-2)Man(a1-3)[Gal(b1-3)GlcNAc(b1-2)Man(a1-6)]Man(b1-4)GlcNAc(b1-4)[Fuc(a1-6)]GlcNAc
# How it was run: as §1
# [22] = molecular target: Gal(b1-3)GlcNAc(b1-3)Gal(b1-3)GlcNAc
# How it was run: as §1
# [23] = molecular target: Gal(b1-3)GlcNAc(b1-3)Gal(b1-4)Glc
# How it was run: as §1
# [24] = molecular target: Gal(b1-3)GlcNAc(b1-3)Gal(b1-4)GlcNAc
# How it was run: as §1
# [25] = molecular target: Gal(b1-3)GlcNAc(b1-3)Gal(b1-4)GlcNAc(b1-6)[Gal(b1-3)GlcNAc(b1-3)]Gal(b1-4)Glc
# How it was run: as §1
# [26] = molecular target: Gal(b1-3)GlcNAc(b1-3)Gal(b1-4)[Fuc(a1-3)]GlcNAc(b1-6)[Gal(b1-3)GlcNAc(b1-3)]Gal(b1-4)Glc
# How it was run: as §1
# [27] = molecular target: Gal(b1-3)GlcNAc(b1-3)GalNAc
# How it was run: as §1
# [28] = molecular target: Gal(b1-3)GlcNAc(b1-6)Gal(b1-4)GlcNAc
# How it was run: as §1
binder,measurement,setting,value
"SspB (Streptococcus gordonii), P16952 (protein) MKNKKEVYGFRKSKVAKTLCGAVLGTALIAFADKAVFADEVTETTSTSTVEVATTGNPATNLPEAQGEMSQVAKESQAKAGSKESALPVEVSSADLDKAVADAKSAGVKVVQDETKDKGTATTATDNAQKQDEIKSDYAKQAEEIKTTTEAYKKEVAAHQAETDKINAENKAADDKYQKDLKSHQEEVEKINTANATAKAEYEAKLAQYQKDLATVKKANEDSQQDYQNKLSAYQTELARVQKANAEAKEAYEKAVKENTAKNEALKVENEAIKQRNETAKATYEAAMKQYEADLAAIKKANEDNDADYQAKLAAYQTELARVQKANAEAKEAYDKAVKENTAKNTAIQAENEAIKQRNETAKATYDAAVKKYEADLAAVKQANATNEADYQAKLAAYQTELARVQKANADAKATYEKAVEDNKAKNAAIKAENEEIKQRNAVAKTDYEAKLAKYEADLAKYKKEFAAYTAALAEAESKKKQDGYLSEPRSQSLNFKSEPNAIRTIDSSVHQYGQQELDALVKSWGISPTNPDRKKSRAYSYFNAINSNNTYAKLVLEKDKPVDVTYTGLKNSSFNGKKISKVVYTYTLKETGFNDGTKMTMFASSDPTVTAWYNDYFTSTNINVKVKFYDEEGQLMNLTGGLVNFSSLNRGNGSGAIDKDAIESVRNFNGRYIPISGSSIKIHENNSAYADSSNAEKSLGARWNTSEWDTTSSPNNWYGAIVGEITQSEISFNMASSKSGNIWFAFNSNINAIGVPTKPVAPTAPTQPMYETEKPLEPAPVAPSYENEPTPPVKTPDQPEPSKPEEPTYETEKPLEPAPVAPSYENEPTPPVKTPDQPEPSKPEEPNYETEKPLEPAPVAPSYENEPTPPVKIPDQPEPSKPEEPTYDPLPTPPLAPTPKQLPTPPVVPTVHFHYSSLLAQPQINKEIKNEDGVDIDRTLVAKQSIVKFELKTEALTAGRPKTTSFVLVDPLPTGYKFDLDATKAASTGFDTTYDEASHTVTFKATDETLATYNADLTKPVETLHPTVVGRVLNDGATYTNNFTLTVNDAYGIKSNVVRVTTPGKPNDPDNPNNNYIKPTKVNKNKEGLNIDGKEVLAGSTNYYELTWDLDQYKGDKSSKEAIQNGFYYVDDYPEEALDVRPDLVKVADEKGNQVSGVSVQQYDSLEAAPKKVQDLLKKANITVKGAFQLFSADNPEEFYKQYVATGTSLVITDPMTVKSEFGKTGGKYENKAYQIDFGNGYATEVVVNNVPKITPKKDVTVSLDPTSENLDGQTVQLYQTFNYRLIGGLIPQNHSEELEDYSFVDDYDQAGDQYTGNYKTFSSLNLTMKDGSVIKAGTDLTSQTTAETDATNGIVTVRFKEDFLQKISLDSPFQAETYLQMRRIAIGTFENTYVNTVNKVAYASNTVRTTTPIPRTPDKPTPIPTPKPKDPDKPETPKEPKVPSPKVEDPSAPIPVSVGKELTTLPKTGTNDATYMPYLGLAALVGFLGLGLAKRKED",glycan array binding signal (z-score),[1],-0.676
same,glycan array binding signal (z-score),[2],0.242
same,glycan array binding signal (z-score),[3],-0.177
same,glycan array binding signal (z-score),Fuc(a1-4)GlcNAc,0.463
same,glycan array binding signal (z-score),Fuc(b1-3)GlcNAc,1.4
same,glycan array binding signal (z-score),Gal(a1-2)Gal,-0.319
same,glycan array binding signal (z-score),Gal(a1-3)Gal,-0.258
same,glycan array binding signal (z-score),Gal(a1-3)Gal(b1-3)GlcNAc,-0.597
same,glycan array binding signal (z-score),[4],1.79
same,glycan array binding signal (z-score),[5],1.81
same,glycan array binding signal (z-score),Gal(a1-3)Gal(b1-4)Glc,0.319
same,glycan array binding signal (z-score),Gal(a1-3)Gal(b1-4)GlcNAc,0.308
same,glycan array binding signal (z-score),[6],2.02
same,glycan array binding signal (z-score),[7],0.663
same,glycan array binding signal (z-score),[8],0.284
same,glycan array binding signal (z-score),Gal(a1-3)GalNAc,0.141
same,glycan array binding signal (z-score),[9],-1.23
same,glycan array binding signal (z-score),[10],0.508
same,glycan array binding signal (z-score),Gal(a1-4)Gal(b1-4)Glc,-1.22
same,glycan array binding signal (z-score),Gal(a1-4)Gal(b1-4)GlcNAc,-0.016
same,glycan array binding signal (z-score),[11],0.457
same,glycan array binding signal (z-score),[12],0.386
same,glycan array binding signal (z-score),Gal(a1-4)GlcNAc,-0.871
same,glycan array binding signal (z-score),Gal(a1-6)Glc,0.072
same,glycan array binding signal (z-score),Gal(b1-2)Gal,-0.166
same,glycan array binding signal (z-score),Gal(b1-3)Gal,0.527
same,glycan array binding signal (z-score),Gal(b1-3)Gal(b1-4)GlcNAc,0.644
same,glycan array binding signal (z-score),[13],-0.672
same,glycan array binding signal (z-score),Gal(b1-3)GalNAc,0.725
same,glycan array binding signal (z-score),[14],0.565
same,glycan array binding signal (z-score),[15],0.035
same,glycan array binding signal (z-score),[16],1.1
same,glycan array binding signal (z-score),[17],1.1
same,glycan array binding signal (z-score),[18],-1.62
same,glycan array binding signal (z-score),Gal(b1-3)GlcNAc,-0.006
same,glycan array binding signal (z-score),[19],1.91
same,glycan array binding signal (z-score),[20],0.616
same,glycan array binding signal (z-score),[21],2.19
same,glycan array binding signal (z-score),[22],-0.283
same,glycan array binding signal (z-score),[23],-0.986
same,glycan array binding signal (z-score),[24],-1.18
same,glycan array binding signal (z-score),[25],1.98
same,glycan array binding signal (z-score),[26],1.07
same,glycan array binding signal (z-score),[27],1.02
same,glycan array binding signal (z-score),[28],0.13
